Results are given in words; binding and its absence hold for the method and conditions named. For some of these results: A result given as binding can be weak or reduced; the word gives no strength. For some of these results: Where a sequence is shown, tags or fusion partners need not be part of it. For some of these results: In cells and extracts the contact can be indirect. Values belong to the molecule of their own block, whether it stands above or below them.
Tests used:
[1] = molecular target: T1, KIN10, endogenous in Arabidopsis plants (Arabidopsis thaliana (endogenous in Arabidopsis plantlets)) (UniProt Q38997); experiment: co-IP; extracts of shoots of 9-day-old pAIP10::AIP10-YFP plants; results say anti-KIN10 antibody, methods say GFP-Trap A beads, overnight at 4°C, 150 mM NaCl; blot with anti-KIN10 and anti-GFP
T1 sequence: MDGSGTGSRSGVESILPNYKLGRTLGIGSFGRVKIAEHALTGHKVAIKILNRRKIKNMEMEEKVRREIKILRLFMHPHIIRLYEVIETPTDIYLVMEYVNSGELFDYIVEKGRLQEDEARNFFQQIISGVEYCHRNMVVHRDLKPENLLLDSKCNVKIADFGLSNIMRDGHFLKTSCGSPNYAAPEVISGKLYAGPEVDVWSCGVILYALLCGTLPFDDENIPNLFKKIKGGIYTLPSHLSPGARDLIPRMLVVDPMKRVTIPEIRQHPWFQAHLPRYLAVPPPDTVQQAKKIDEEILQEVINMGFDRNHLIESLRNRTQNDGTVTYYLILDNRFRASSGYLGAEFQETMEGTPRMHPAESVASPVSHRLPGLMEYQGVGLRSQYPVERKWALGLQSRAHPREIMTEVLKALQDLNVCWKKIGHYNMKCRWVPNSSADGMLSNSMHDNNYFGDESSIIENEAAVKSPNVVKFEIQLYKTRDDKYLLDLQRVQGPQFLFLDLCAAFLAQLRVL

[2] = molecular target: T2, ABAP1, endogenous in Arabidopsis plants (Arabidopsis thaliana (endogenous in promAIP10::AIP10-YFP plants)) (UniProt B7U179); experiment: co-IP; anti-ABAP1 antibody with protein A Sepharose; 300 μg protein extract of shoot and root (9 DAG) and inflorescence of pAIP10::AIP10-YFP plants; NaCl reduced to 200 mM; blot with anti-ABAP1 and anti-GFP
T2 sequence: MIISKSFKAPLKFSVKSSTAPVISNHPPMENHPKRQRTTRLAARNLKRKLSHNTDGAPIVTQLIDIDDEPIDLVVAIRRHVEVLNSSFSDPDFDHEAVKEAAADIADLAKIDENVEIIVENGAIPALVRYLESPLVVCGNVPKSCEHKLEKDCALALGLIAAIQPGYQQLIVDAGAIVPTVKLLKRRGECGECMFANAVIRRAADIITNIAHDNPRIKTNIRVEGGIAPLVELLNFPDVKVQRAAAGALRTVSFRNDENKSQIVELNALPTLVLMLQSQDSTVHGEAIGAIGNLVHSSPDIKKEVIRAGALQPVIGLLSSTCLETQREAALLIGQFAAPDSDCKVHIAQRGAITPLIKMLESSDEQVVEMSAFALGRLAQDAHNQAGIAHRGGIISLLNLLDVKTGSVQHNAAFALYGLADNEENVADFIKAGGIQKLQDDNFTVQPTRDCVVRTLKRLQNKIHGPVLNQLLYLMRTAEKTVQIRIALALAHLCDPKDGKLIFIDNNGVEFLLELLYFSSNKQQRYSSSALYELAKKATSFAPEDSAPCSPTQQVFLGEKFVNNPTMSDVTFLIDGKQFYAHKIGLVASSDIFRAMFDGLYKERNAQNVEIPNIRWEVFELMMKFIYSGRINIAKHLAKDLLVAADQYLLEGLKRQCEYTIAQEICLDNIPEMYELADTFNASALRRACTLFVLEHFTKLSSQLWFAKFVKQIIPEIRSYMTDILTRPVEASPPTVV

[3] = molecular target: ABAP1 interacting protein 10 (AIP10), yeast two-hybrid fusion (Arabidopsis thaliana); experiment: two-hybrid; yeast strain PJ694-a; fusions to AD (pDEST22) and BD (pDEST32); -Leu/-Trp selects co-transformation, -Leu/-Trp/-His/-Ade selects for strong interaction
[4] = molecular target: GST alone (glutathione S-transferase); experiment: pull-down; semi-in vivo: bacterially expressed GST::AIP10 as bait, ABAP1-GFP protein extract; Western blot; only the target purified
[5] = molecular target: GST::AIP10 (recombinant AIP10-GST fusion) (Arabidopsis thaliana); experiment: as above
[6] = molecular target: GST alone (glutathione S-transferase); experiment: pull-down; semi-in vivo: full-length GST::AIP10 as bait, protein extracts of Arabidopsis 9-day-old plantlets; blot with anti-KIN10; only the target purified
[7] = molecular target: GST::AIP10 (recombinant AIP10-GST fusion) (Arabidopsis thaliana); experiment: as above

B1: Armadillo BTB Arabidopsis protein 1 (ABAP1), yeast two-hybrid fusion (protein, UniProt B7U179 1-737)
chain: T2 sequence
binding [3]: binds

B3: KIN10, endogenous in Arabidopsis plants (enzyme, UniProt Q38997 1-512)
chain: T1 sequence
binding [6]: no binding | binding [7]: binds

The remaining lines, values ahead:

binding [1]: binds | binding [2]: binds
Molecule: AIP10-YFP C-terminal fusion protein (promAIP10::AIP10-YFP) (Arabidopsis thaliana)

binding [4]: no binding | binding [5]: binds
B2: ABAP1-GFP (protein, UniProt B7U179 1-737)
chain: T2 sequence

Source: PMC12334247
